These are yes or no findings as the source states them, for the method shown. Some results given as binding are weak or reduced against the parent protein; the word gives no strength.
Biological target: recombinant human Notch1 protein (human) (UniProt P46531)
Test: ELISA of HEK 293 conditioned media for Notch1 binding activity; humanized heavy chain with murine 52M51 light chain

Chains of the proteins cited; added tags and fusions are not shown. Residues count along the entry.
UniProt P46531, residues 1426-1731: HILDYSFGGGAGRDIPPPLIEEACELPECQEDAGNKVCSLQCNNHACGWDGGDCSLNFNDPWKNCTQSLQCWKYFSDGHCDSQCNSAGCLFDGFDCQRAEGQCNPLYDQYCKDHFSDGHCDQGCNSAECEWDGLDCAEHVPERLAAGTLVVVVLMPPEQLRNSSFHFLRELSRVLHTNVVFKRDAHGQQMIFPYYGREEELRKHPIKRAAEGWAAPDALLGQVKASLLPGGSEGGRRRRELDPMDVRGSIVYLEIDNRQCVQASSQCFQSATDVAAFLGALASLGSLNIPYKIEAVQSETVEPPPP

binding: binds
B1: 52M51-H4 humanized heavy chain cotransfected with the murine 52M51 light chain (antibody, human IgG2, V domains shown)
VH: QVQLVQSGAEVKKPGASVKISCKVSGYTLRGYWIEWVRQAPGKGLEWIGQILPGTGRTNYNEKFKGRVTMTADTSTDTAYMELSSLRSEDTAVYYCARFDGNYGYYAMDYWGQGTTVTVSS
VL: QAVVTQESALTTSPGETVTLTCRSSTGAVTTSNYANWVQEKPDHLFTGLIGGTNNRAPGVPARFSGSLIGDKAALTITGAQTEDEAIYFCALWYSNHWVFGGGTKLTVLG
